Source: the supplement of paper PMC8728848
The list shows a part of the results.

What was measured:
Test in all cases: glycan array binding signal (z-score within array); higher = stronger binding
Settings in all cases: glycan notation: IUPAC condensed, linker removed
[1] = molecular target: Gal(b1-3)GlcNAc(b1-6)[Gal(b1-3)]GalNAc
Method in brief: (§1)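 Glycan array data came from 3228 arrays in the Consortium for Functional Glycomics database, and only arrays with an available protein sequence were kept. Glycan names were put into IUPAC-condensed notation, and columns mapping to the same glycan were averaged. The binding signal is a within-array Z-score, averaged across arrays of one protein sequence run at different concentrations or buffers and across linkers. A negative Z-score can be read as non-binding.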

[2] = molecular target: Gal(b1-3)GlcNAc6S
Method in brief: as §1

[3] = molecular target: Gal(b1-3)[Fuc(a1-4)]GlcNAc
Method in brief: as §1

[4] = molecular target: Gal(b1-3)[Fuc(a1-4)]GlcNAc(b1-2)Man
Method in brief: as §1

[5] = molecular target: Gal(b1-3)[Fuc(a1-4)]GlcNAc(b1-2)Man(a1-3)[Gal(b1-3)[Fuc(a1-4)]GlcNAc(b1-2)Man(a1-6)]Man(b1-4)GlcNAc(b1-4)[Fuc(a1-6)]GlcNAc
Method in brief: as §1

[6] = molecular target: Gal(b1-3)[Fuc(a1-4)]GlcNAc(b1-3)Gal(b1-3)[Fuc(a1-4)]GlcNAc
Method in brief: as §1

[7] = molecular target: Gal(b1-3)[Fuc(a1-4)]GlcNAc(b1-3)Gal(b1-4)[Fuc(a1-3)]GlcNAc
Method in brief: as §1

[8] = molecular target: Gal(b1-3)[Fuc(a1-4)]GlcNAc(b1-6)GalNAc
Method in brief: as §1

[9] = molecular target: Gal(b1-3)[GlcNAc(b1-6)]GalNAc
Method in brief: as §1

[10] = molecular target: Gal(b1-3)[Neu5Ac(a2-6)]GalNAc
Method in brief: as §1

[11] = molecular target: Gal(b1-3)[Neu5Ac(a2-6)]GlcNAc(b1-4)Gal(b1-4)Glc
Method in brief: as §1

[12] = molecular target: Gal(b1-3)[Neu5Ac(b2-6)]GalNAc
Method in brief: as §1

[13] = molecular target: Gal(b1-4)Gal
Method in brief: as §1

[14] = molecular target: Gal(b1-4)GalNAc(a1-3)[Fuc(a1-2)]Gal(b1-4)GlcNAc
Method in brief: as §1

[15] = molecular target: Gal(b1-4)GalNAc(b1-3)[Fuc(a1-2)]Gal(b1-4)GlcNAc
Method in brief: as §1

[16] = molecular target: Gal(b1-4)Glc
Method in brief: as §1

[17] = molecular target: Gal(b1-4)Glc6S
Method in brief: as §1

[18] = molecular target: Gal(b1-4)GlcNAc
Method in brief: as §1

[19] = molecular target: Gal(b1-4)GlcNAc(a1-6)Gal(b1-4)GlcNAc
Method in brief: as §1

[20] = molecular target: Gal(b1-4)GlcNAc(b1-2)Man
Method in brief: as §1

[21] = molecular target: Gal(b1-4)GlcNAc(b1-2)Man(a1-3)Man(b1-4)GlcNAc(b1-4)GlcNAc
Method in brief: as §1

[22] = molecular target: Gal(b1-4)GlcNAc(b1-2)Man(a1-3)[Gal(b1-4)GlcNAc(b1-2)Man(a1-6)]Man(b1-4)GlcNAc(b1-4)GlcNAc
Method in brief: as §1

[23] = molecular target: Gal(b1-4)GlcNAc(b1-2)Man(a1-3)[Gal(b1-4)GlcNAc(b1-2)Man(a1-6)]Man(b1-4)GlcNAc(b1-4)[Fuc(a1-6)]GlcNAc
Method in brief: as §1

[24] = molecular target: Gal(b1-4)GlcNAc(b1-2)Man(a1-3)[Gal(b1-4)GlcNAc(b1-2)Man(a1-6)][Gal(b1-4)GlcNAc(b1-4)]Man(b1-4)GlcNAc(b1-4)[Fuc(a1-6)]GlcNAc
Method in brief: as §1

[25] = molecular target: Gal(b1-4)GlcNAc(b1-2)Man(a1-3)[Gal(b1-4)GlcNAc(b1-2)Man(a1-6)][GlcNAc(b1-4)]Man(b1-4)GlcNAc(b1-4)[Fuc(a1-6)]GlcNAc
Method in brief: as §1

[26] = molecular target: Gal(b1-4)GlcNAc(b1-2)Man(a1-3)[GlcNAc(b1-2)Man(a1-6)]Man(b1-4)GlcNAc(b1-4)GlcNAc
Method in brief: as §1

[27] = molecular target: Gal(b1-4)GlcNAc(b1-2)Man(a1-3)[GlcNAc(b1-4)][Gal(b1-4)GlcNAc(b1-2)Man(a1-6)]Man(b1-4)GlcNAc(b1-4)GlcNAc
Method in brief: as §1

[28] = molecular target: Gal(b1-4)GlcNAc(b1-2)Man(a1-3)[Man(a1-6)]Man(b1-4)GlcNAc(b1-4)GlcNAc
Method in brief: as §1

[29] = molecular target: Gal(b1-4)GlcNAc(b1-2)Man(a1-6)Man(b1-4)GlcNAc(b1-4)GlcNAc
Method in brief: as §1

[30] = molecular target: Gal(b1-4)GlcNAc(b1-2)Man(a1-6)[GlcNAc(b1-2)Man(a1-3)]Man(b1-4)GlcNAc(b1-4)GlcNAc
Method in brief: as §1

[31] = molecular target: Gal(b1-4)GlcNAc(b1-2)Man(a1-6)[Man(a1-3)]Man(b1-4)GlcNAc(b1-4)GlcNAc
Method in brief: as §1

[32] = molecular target: Gal(b1-4)GlcNAc(b1-2)[Gal(b1-4)GlcNAc(b1-4)]Man(a1-3)[Gal(b1-4)GlcNAc(b1-2)Man(a1-6)]Man(b1-4)GlcNAc(b1-4)GlcNAc
Method in brief: as §1

[33] = molecular target: Gal(b1-4)GlcNAc(b1-2)[Gal(b1-4)GlcNAc(b1-4)]Man(a1-3)[Gal(b1-4)GlcNAc(b1-2)[Gal(b1-4)GlcNAc(b1-6)]Man(a1-6)]Man(b1-4)GlcNAc(b1-4)GlcNAc
Method in brief: as §1

[34] = molecular target: Gal(b1-4)GlcNAc(b1-2)[Gal(b1-4)GlcNAc(b1-4)]Man(a1-3)[GlcNAc(b1-4)][Gal(b1-4)GlcNAc(b1-2)Man(a1-6)]Man(b1-4)GlcNAc(b1-4)GlcNAc
Method in brief: as §1

[35] = molecular target: Gal(b1-4)GlcNAc(b1-2)[Gal(b1-4)GlcNAc(b1-4)]Man(a1-3)[GlcNAc(b1-4)][Gal(b1-4)GlcNAc(b1-2)[Gal(b1-4)GlcNAc(b1-6)]Man(a1-6)]Man(b1-4)GlcNAc(b1-4)GlcNAc
Method in brief: as §1

[36] = molecular target: Gal(b1-4)GlcNAc(b1-2)[Gal(b1-4)GlcNAc(b1-6)]Man(a1-6)[Gal(b1-4)GlcNAc(b1-2)Man(a1-3)]Man(b1-4)GlcNAc(b1-4)GlcNAc
Method in brief: as §1

[37] = molecular target: Gal(b1-4)GlcNAc(b1-2)[Gal(b1-4)GlcNAc(b1-6)]Man(a1-6)[Gal(b1-4)GlcNAc(b1-2)Man(a1-3)]Man(b1-4)GlcNAc(b1-4)[Fuc(a1-6)]GlcNAc
Method in brief: as §1

[38] = molecular target: Gal(b1-4)GlcNAc(b1-2)[Gal(b1-4)GlcNAc(b1-6)]Man(a1-6)[GlcNAc(b1-4)][Gal(b1-4)GlcNAc(b1-2)Man(a1-3)]Man(b1-4)GlcNAc(b1-4)GlcNAc
Method in brief: as §1

[39] = molecular target: Gal(b1-4)GlcNAc(b1-2)[Gal(b1-4)GlcNAc(b1-6)]Man(a1-6)[GlcNAc(b1-4)][Gal(b1-4)GlcNAc(b1-2)[Gal(b1-4)GlcNAc(b1-4)]Man(a1-3)]Man(b1-4)GlcNAc(b1-4)[Fuc(a1-6)]GlcNAc
Method in brief: as §1

[40] = molecular target: Gal(b1-4)GlcNAc(b1-3)Gal(b1-3)GalNAc
Method in brief: as §1

[41] = molecular target: Gal(b1-4)GlcNAc(b1-3)Gal(b1-3)GlcNAc
Method in brief: as §1

[42] = molecular target: Gal(b1-4)GlcNAc(b1-3)Gal(b1-4)Glc
Method in brief: as §1

[43] = molecular target: Gal(b1-4)GlcNAc(b1-3)Gal(b1-4)GlcNAc
Method in brief: as §1

[44] = molecular target: Gal(b1-4)GlcNAc(b1-3)Gal(b1-4)GlcNAc(b1-2)Man(a1-3)[Gal(b1-4)GlcNAc(b1-3)Gal(b1-4)GlcNAc(b1-2)Man(a1-6)]Man(b1-4)GlcNAc(b1-4)GlcNAc
Method in brief: as §1

[45] = molecular target: Gal(b1-4)GlcNAc(b1-3)Gal(b1-4)GlcNAc(b1-2)Man(a1-3)[Gal(b1-4)GlcNAc(b1-3)Gal(b1-4)GlcNAc(b1-2)Man(a1-6)]Man(b1-4)GlcNAc(b1-4)[Fuc(a1-6)]GlcNAc
Method in brief: as §1

B1: Aap arpt (Staphylococcus epidermidis) (protein)
chain: NNEAPQMSSTLQAEEGSNAEAPQSEPTKAEEGGNAEAAQSEPTKAEEGGNAEAPQSEPTKAEEGGNAEAAQSEPTKTEEGSNVKAAQSEPTKAEEGSNAEAPQSEPTKTEEGSNAKAAQSEPTKAEEGGNAEAAQSEPTKTEEGSNAEAPQSEPTKAEEGGYAEAPQSEPTKTEEGGNAEAPNVPTIKA
[1]
  glycan array binding signal (z-score): 0.662
[2]
  glycan array binding signal (z-score): -0.337
[3]
  glycan array binding signal (z-score): -0.546
[4]
  glycan array binding signal (z-score): 1.56
[5]
  glycan array binding signal (z-score): 2.23
[6]
  glycan array binding signal (z-score): 0.08
[7]
  glycan array binding signal (z-score): -1.72
[8]
  glycan array binding signal (z-score): -0.35
[9]
  glycan array binding signal (z-score): -0.81
[10]
  glycan array binding signal (z-score): -0.22
[11]
  glycan array binding signal (z-score): -1.06
[12]
  glycan array binding signal (z-score): -0.606
[13]
  glycan array binding signal (z-score): -0.796
[14]
  glycan array binding signal (z-score): -1.14
[15]
  glycan array binding signal (z-score): -2.07
[16]
  glycan array binding signal (z-score): 0.102
[17]
  glycan array binding signal (z-score): -0.309
[18]
  glycan array binding signal (z-score): -0.433
[19]
  glycan array binding signal (z-score): -0.625
[20]
  glycan array binding signal (z-score): 1.18
[21]
  glycan array binding signal (z-score): -0.757
[22]
  glycan array binding signal (z-score): -0.541
[23]
  glycan array binding signal (z-score): 0.746
[24]
  glycan array binding signal (z-score): -0.524
[25]
  glycan array binding signal (z-score): -1.24
[26]
  glycan array binding signal (z-score): 0.917
[27]
  glycan array binding signal (z-score): -1.14
[28]
  glycan array binding signal (z-score): -0.645
[29]
  glycan array binding signal (z-score): 1.96
[30]
  glycan array binding signal (z-score): 0.448
[31]
  glycan array binding signal (z-score): -0.99
[32]
  glycan array binding signal (z-score): 1.34
[33]
  glycan array binding signal (z-score): -0.745
[34]
  glycan array binding signal (z-score): -0.56
[35]
  glycan array binding signal (z-score): -1.6
[36]
  glycan array binding signal (z-score): 0.416
[37]
  glycan array binding signal (z-score): 1.91
[38]
  glycan array binding signal (z-score): 0.052
[39]
  glycan array binding signal (z-score): -1.73
[40]
  glycan array binding signal (z-score): 1.03
[41]
  glycan array binding signal (z-score): -0.528
[42]
  glycan array binding signal (z-score): 0.371
[43]
  glycan array binding signal (z-score): 0.925
[44]
  glycan array binding signal (z-score): 0.902
[45]
  glycan array binding signal (z-score): 1.35
